Experimental data taken from patent US20070032521A1, “Use of c-kit inhibitors for treating type II diabetes” (AB Science, priority 2003, published 2007).
Some results were stated once for a whole list of compounds, not compound by compound.

Columns and labels:
c-Kit WT = c-Kit WT (UniProt P05532); experiment: ex vivo TK inhibition, [3H] thymidine proliferation assay, c-Kit WT; format: cell-based; conditions: Ba/F3-derived cells, [3H] thymidine incorporation after 2 days of culture
c-Kit JM Δ27 = c-Kit JM Δ27 (Mus musculus, UniProt P05532); experiment: ex vivo TK inhibition, [3H] thymidine proliferation assay, mutated c-Kit (JM); format: cell-based, murine; conditions: Ba/F3 mkitΔ27 (juxtamembrane deletion), [3H] thymidine incorporation after 2 days of culture

| Structure (SMILES) | IC50 (c-Kit WT) [µM] | IC50 (c-Kit JM Δ27) [µM] |
| --- | --- | --- |
| Cc1ccc(NC(=O)c2ccc(CN3CCN(C)CC3)cc2)cc1Nc1nc(-c2cccnc2)cs1 [Compound 002, 2-(2-methyl-5-amino)phenyl-4-(3-pyridyl)-thiazole] | < 10 | – |
| Cc1ccc(NC(=O)c2ccc(CN3CCN(C)CC3)cc2)cc1Nc1nc(-c2nccs2)cs1 [Compound 005, N-[3-([2,4]Bithiazolyl-2′-ylamino)-4-methyl-phenyl]-4-(4-methyl-piperazin-1-ylmethyl)-benzamide] | < 10 | < 1 |
| Cc1ccc(NC(=O)c2ccc(CN3CCN(C)CC3)cc2)cc1Nc1nc(-c2cnccn2)cs1 [Compound 006, 4-(4-Methyl-piperazin-1-ylmethyl)-N-[4-methyl-3-(4-pyrazin-2-yl-thiazol-2-ylamino)-phenyl]-benzamide] | < 10 | – |
| CCOC(=O)c1csc(Nc2cc(NC(=O)c3cccc(I)c3)ccc2C)n1 [Compound 007, 2-[5-(3-Iodo-benzoylamino)-2-methyl-phenylamino]-thiazole-4-carboxylic acid ethyl ester] | < 10 | < 1 |
| CCOC(=O)c1csc(Nc2cc(NC(=O)c3ccc(CN4CCN(C)CC4)cc3)ccc2C)n1 [Compound 008, 2-{2-Methyl-5-[4-(4-methyl-piperazin-1-ylmethyl)-benzoylamino]-phenylamino}-thiazole-4-carboxylic acid ethyl ester] | < 10 | < 1 |
| COc1ccc(NC(=O)Nc2ccc(C)c(Nc3nc(-c4cccnc4)cs3)c2)cc1 [Compound 009, 1-(4-Methoxy-phenyl)-3-[4-methyl-3-(4-pyridin-3-yl-thiazol-2-ylamino)-phenyl]-urea] | < 10 | < 1 |
| Cc1ccc(NC(=O)Nc2ccc(Br)cc2)cc1Nc1nc(-c2cccnc2)cs1 [Compound 010, 1-(4-Bromo-phenyl)-3-[4-methyl-3-(4-pyridin-3-yl-thiazol-2-ylamino)-phenyl]-urea] | < 10 | < 1 |
| Cc1ccc(NC(=O)Nc2ccc(F)cc2)cc1Nc1nc(-c2cccnc2)cs1 [Compound 012, 1-(4-Fluoro-phenyl)-3-[4-methyl-3-(4-pyridin-3-yl-thiazol-2-ylamino)-phenyl]-urea] | < 10 | < 1 |
| COc1ccc(NC(=O)Nc2ccc(C)c(Nc3nc(-c4cccnc4)cs3)c2)c(OC)c1 [Compound 017, 1-(2,4-Dimethoxy-phenyl)-3-[4-methyl-3-(4-pyridin-3-yl-thiazol-2-ylamino)-phenyl]-urea] | < 10 | < 1 |
| Cc1ccc(NC(=O)Nc2c(C)noc2C)cc1Nc1nc(-c2cccnc2)cs1 [Compound 019, 1-(3,5-Dimethyl-isoxazol-4-yl)-3-[4methyl-3-(4-pyridin-3-yl-thiazol-2-ylamino)-phenyl]-urea] | < 10 | < 1 |
| Cc1ccc(NC(=O)Nc2ccccc2I)cc1Nc1nc(-c2cccnc2)cs1 [Compound 020, 1-(2-Iodo-phenyl)-3-[4-methyl-3-(4-pyridin-3-yl-thiazol-2-ylamino)-phenyl]-urea] | < 10 | < 1 |
| Cc1ccc(NC(=O)Nc2ccc(OC(F)F)cc2)cc1Nc1nc(-c2cccnc2)cs1 [Compound 021, 1-(4-Difluoromethoxy-phenyl)-3-[4-methyl-3-(4-pyridin-3-yl-thiazol-2-ylamino)-phenyl]-urea] | < 10 | < 1 |
| Cc1ccc(NC(=O)Nc2ccccc2Cl)cc1Nc1nc(-c2cccnc2)cs1 [Compound 024, 1-(2-Chloro-phenyl)-3-[4-methyl-3-(4-pyridin-3-yl-thiazol-2-ylamino)-phenyl]-urea] | < 10 | < 1 |
| Cc1ccc(NC(=O)Nc2cccc(F)c2)cc1Nc1nc(-c2cccnc2)cs1 [Compound 025, 1-(3-Fluoro-phenyl)-3-[4-methyl-3-(4-pyridin-3-yl-thiazol-2-ylamino)-phenyl]-urea] | < 10 | < 1 |
| Cc1ccc(NC(=O)Nc2ccc(C)c(Nc3nc(-c4cccnc4)cs3)c2)cc1 [Compound 026, 1-[4Methyl-3-(4-pyridin-3-yl-thiazol-2-ylamino)-phenyl]-3-p-tolyl-urea] | < 10 | < 1 |
| Cc1ccc(NC(=O)c2cccc(Br)c2)cc1Nc1nc(-c2cccnc2)cs1 [Compound 028, 3-Bromo-N-[4-methyl-3-(4-pyridin-3-yl-thiazol-2-ylamino)-phenyl]-benzamide] | < 10 | < 1 |
| Cc1ccc(NC(=O)c2cccc(I)c2)cc1Nc1nc(-c2cccnc2)cs1 [Compound 029, 3-Iodo-N-[4-methyl-3-(4-pyridin-3-yl-thiazol-2-ylamino)-phenyl]-benzamide] | < 10 | < 1 |
| Cc1ccc(NC(=O)c2ccc(CO)cc2)cc1Nc1nc(-c2cccnc2)cs1 [Compound 030, 4-Hydroxymethyl-N-[4-methyl-3-(4-pyridin-3-yl-thiazol-2-ylamino)-phenyl]-benzamide] | < 10 | < 1 |
| Cc1ccc(NC(=O)c2ccccc2I)cc1Nc1nc(-c2cccnc2)cs1 [Compound 032, 2-Iodo-N-[4-methyl-3-(4-pyridin-3-yl-thiazol-2-ylamino)-phenyl]-benzamide] | < 10 | < 1 |

| Structure (SMILES) | IC50 (c-Kit WT) [µM] | IC50 (c-Kit JM Δ27) [µM] |
| --- | --- | --- |
| Cc1ccc(NC(=O)c2ccc(OS(=O)(=O)c3cccs3)cc2)cc1Nc1nc(-c2cccnc2)cs1 [Compound 042, Thiophene-2-sulfonic acid 4-[4-methyl-3-(4-pyridin-3-yl-thiazol-2-ylamino)-phenylcarbamoyl]-phenyl ester] | < 10 | < 1 |
| Cc1ccc(NC(=O)c2ccc(OS(=O)(=O)c3ccc(I)cc3)cc2)cc1Nc1nc(-c2cccnc2)cs1 [Compound 043, 4-Iodo-benzenesulfonic acid 4-[4-methyl-3-(4-pyridin-3-yl-thiazol-2-ylamino)-phenylcarbamoyl]-phenyl ester] | < 10 | < 1 |
| Cc1ccc(NC(=O)c2cccc(F)c2)cc1Nc1nc(-c2cccnc2)cs1 [Compound 045, 3-Fluoro-N-[4-methyl-3-(4-pyridin-3-yl-thiazol-2-ylamino)-phenyl]-benzamide] | < 10 | – |
| Cc1ccc(NC(=O)c2ccc(N(C)C)cc2)cc1Nc1nc(-c2cccnc2)cs1 [Compound 047, 4-Dimethylamino-N-[4-methyl-3-(4-pyridin-3-yl-thiazol-2-ylamino)-phenyl]-benzamide] | < 10 | < 1 |
| Cc1ccc(F)c(C(=O)Nc2ccc(C)c(Nc3nc(-c4cccnc4)cs3)c2)c1 [Compound 048, 2-Fluoro-5-methyl-N-[4-methyl-3-(4-pyridin-3-yl-thiazol-2-ylamino)-phenyl]-benzamide] | < 10 | < 1 |
| Cc1ccc(NC(=O)c2ccc(C(C)(C)C)cc2)cc1Nc1nc(-c2cccnc2)cs1 [Compound 049, 4-tert-Butyl-N-[4-methyl-3-(4-pyridin-3-yl-thiazol-2-ylamino)-phenyl]-benzamide] | < 10 | < 1 |
| Cc1ccc(NC(=O)c2ccc3c(c2)OCO3)cc1Nc1nc(-c2cccnc2)cs1 [Compound 051] | < 10 | < 1 |
| Cc1ccc(NC(=O)c2cccc(OCCN3CCOCC3)c2)cc1Nc1nc(-c2cccnc2)cs1 [Compound 052] | < 10 | < 1 |
| Cc1ccc(NC(=O)c2ccc(CN3CCN(C)CC3)cc2)cc1Nc1nc(-c2cccnc2)cs1 [Compound 066, 4-(4-methyl-piperazin-1-ylmethyl)-N-[4-methyl-3-(4-pyridin-3-yl-thiazol-2-ylamino)-phenyl]-benzamide] | – | < 1 |
| Cc1ccc(NC(=O)c2ccc(F)cc2)cc1Nc1nc(-c2cccnc2)cs1 [Compound 104, 4-Fluoro-N-[4-methyl-3-(4-pyridin-3-yl-thiazol-2-ylamino)-phenyl]-benzamide] | – | < 1 |
| Cc1ccc(NC(=O)c2ccc(F)cc2)cc1Nc1nc(-c2cccnc2)cs1 [Compound 106, 4-Fluoro-N-[4-methyl-3-(4-pyridin-3-yl-thiazol-2-ylamino)-phenyl]-benzamide] | < 10 | – |
| COc1ccc(-c2csc(Nc3cc(NC(=O)c4ccc(CN5CCN(C)CC5)cc4)ccc3C)n2)cc1 [Compound 110, N-{3-[4-(4-Methoxy-phenyl)-thiazol-2-ylamino]-4-methyl-phenyl}-4-(4methyl-piperazin-1 ylmethyl)-benzamide] | < 10 | – |
| Cc1ccc(NC(=O)c2ccc(CN3CCN(C)CC3)cc2)cc1Nc1nc(-c2cccc(C(F)(F)F)c2)cs1 [Compound 116, 4-(4-Methyl-piperazin-1-ylmethyl)-N-{4-methyl-3-[4-(3-trifluoromethyl-phenyl)-thiazol-2-ylamino]-phenyl}-benzamide] | < 10 | – |
| Cc1ccc(C)c(-c2csc(Nc3cc(NC(=O)c4ccc(CN5CCN(C)CC5)cc4)ccc3C)n2)c1 [Compound 124, N-{3-[4-(2,5-Dimethyl-phenyl)thiazol-2-ylamino]-4-methyl-phenyl}-4-(4-methyl-piperazin-1-ylmethyl)-benzamide] | < 10 | – |
| Cc1ccc(NC(=O)c2cccc(Br)c2)cc1Nc1nc(-c2ccc(Cl)cc2)c(C)s1 [Compound 128, 3-Bromo-N-{3-[4-(4-chloro-phenyl)-5-methyl-thiazol-2-ylamino]-4-methyl-phenyl}-benzamide] | < 10 | – |
| Cc1ccc(NC(=O)OCC(C)C)cc1Nc1nc(-c2ccc(Cl)cc2)c(C)s1 [Compound 129, {3-[4-(4-Chloro-phenyl)-5-methyl-thiazol-2-ylamino]-4-methyl-phenyl}-carbamic acid isobutyl ester] | < 10 | – |
| CCOC(=O)c1nc(Nc2cc(NC(=O)c3cccc(Br)c3)ccc2C)sc1-c1ccc(Cl)cc1 [Compound 130, 2-[5-(3-Bromo-benzoylamino)-2-methyl-phenylamino]-5-(4-chloro-phenyl)-thiazole-4-carboxylic acid ethyl ester] | < 10 | – |
| Cc1ccc(NC(=O)c2cccc(Br)c2)cc1Nc1nc(C(=O)NCCN(C)C)c(-c2ccc(Cl)cc2)s1 [Compound 131, 2-[5-(3-Bromo-benzoylamino)-2-methyl-phenylamino]-5-(4-chloro-phenyl)-thiazole-4-carboxylic acid (2-dimethylamino-ethyl)-amide] | < 10 | – |
